These are yes or no findings as the source states them, for the method shown. Binding seen in cells or lysates may run through a third protein. Some results given as binding are weak or reduced against the parent protein; the word gives no strength. For some of these results: Sequences can lack the tags named with a protein.

Protein sequences, listed by entry. Tags and fused reporters are not part of them.
UniProt Q03135: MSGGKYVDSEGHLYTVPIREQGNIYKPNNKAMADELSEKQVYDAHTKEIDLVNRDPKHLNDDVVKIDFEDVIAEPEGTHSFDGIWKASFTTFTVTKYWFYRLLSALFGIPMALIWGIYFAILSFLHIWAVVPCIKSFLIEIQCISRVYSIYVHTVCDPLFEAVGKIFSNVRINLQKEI

Experiment [1] deals with T1, PTRF (as used in Additional file 2: Figure S3A) (human) (UniProt Q6NZI2).
T1 sequence: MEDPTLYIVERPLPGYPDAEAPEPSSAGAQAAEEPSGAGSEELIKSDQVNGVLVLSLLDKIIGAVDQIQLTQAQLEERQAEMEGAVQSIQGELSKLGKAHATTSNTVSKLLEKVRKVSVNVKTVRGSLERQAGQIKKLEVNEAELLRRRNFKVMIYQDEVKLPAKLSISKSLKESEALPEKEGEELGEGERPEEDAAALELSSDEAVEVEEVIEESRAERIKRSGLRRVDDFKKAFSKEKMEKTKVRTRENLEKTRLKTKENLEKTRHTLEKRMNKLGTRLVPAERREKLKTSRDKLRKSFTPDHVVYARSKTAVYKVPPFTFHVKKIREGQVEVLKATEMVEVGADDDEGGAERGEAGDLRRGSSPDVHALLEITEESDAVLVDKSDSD
Description: co-IP; Figure S3A; cells, bait and constructs not given; with UBE2O.

Experiment [2] deals with T2, endogenous UBE2O (human (endogenous in HeLa, U-2 OS, U251)) (UniProt Q9C0C9).
T2 sequence: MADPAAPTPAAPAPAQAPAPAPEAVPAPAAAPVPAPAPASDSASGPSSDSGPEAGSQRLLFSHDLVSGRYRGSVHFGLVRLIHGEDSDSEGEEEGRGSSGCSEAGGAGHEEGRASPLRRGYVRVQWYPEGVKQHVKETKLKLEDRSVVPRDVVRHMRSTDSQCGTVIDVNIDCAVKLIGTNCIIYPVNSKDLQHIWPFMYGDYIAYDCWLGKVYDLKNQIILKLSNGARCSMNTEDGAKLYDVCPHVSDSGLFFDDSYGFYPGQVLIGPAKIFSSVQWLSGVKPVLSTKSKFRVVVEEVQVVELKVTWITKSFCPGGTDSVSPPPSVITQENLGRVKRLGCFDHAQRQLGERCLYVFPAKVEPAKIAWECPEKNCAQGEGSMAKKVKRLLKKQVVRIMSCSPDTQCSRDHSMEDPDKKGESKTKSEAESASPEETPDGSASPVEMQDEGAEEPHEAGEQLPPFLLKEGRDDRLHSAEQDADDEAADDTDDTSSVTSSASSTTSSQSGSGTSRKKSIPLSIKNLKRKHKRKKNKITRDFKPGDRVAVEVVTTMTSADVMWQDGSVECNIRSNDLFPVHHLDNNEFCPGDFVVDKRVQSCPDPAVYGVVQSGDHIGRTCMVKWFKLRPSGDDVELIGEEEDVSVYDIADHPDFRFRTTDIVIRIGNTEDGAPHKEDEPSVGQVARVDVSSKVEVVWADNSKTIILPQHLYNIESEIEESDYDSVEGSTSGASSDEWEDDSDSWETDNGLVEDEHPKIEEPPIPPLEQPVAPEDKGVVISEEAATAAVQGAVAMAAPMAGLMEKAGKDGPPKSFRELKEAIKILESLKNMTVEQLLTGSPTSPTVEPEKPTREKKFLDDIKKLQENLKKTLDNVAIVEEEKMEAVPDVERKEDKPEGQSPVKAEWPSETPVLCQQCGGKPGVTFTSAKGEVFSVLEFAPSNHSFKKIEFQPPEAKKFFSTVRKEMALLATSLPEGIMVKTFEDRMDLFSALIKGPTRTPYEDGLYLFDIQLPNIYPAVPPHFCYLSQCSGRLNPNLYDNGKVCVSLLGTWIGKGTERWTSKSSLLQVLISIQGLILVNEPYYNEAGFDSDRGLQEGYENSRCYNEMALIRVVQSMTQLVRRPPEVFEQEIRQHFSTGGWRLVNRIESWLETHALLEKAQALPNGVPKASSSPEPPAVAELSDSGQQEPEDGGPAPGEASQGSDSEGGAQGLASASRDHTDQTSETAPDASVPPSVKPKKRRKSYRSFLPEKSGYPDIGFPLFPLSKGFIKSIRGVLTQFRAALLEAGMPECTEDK
Kind of experiment: co-IP; endogenous; U251 cells, a PTRF high cell line (Figure S1C); precipitating antibody not given.

The target of a further experiment is T3, Flag-PTRF (human) (UniProt Q6NZI2).
T3 sequence: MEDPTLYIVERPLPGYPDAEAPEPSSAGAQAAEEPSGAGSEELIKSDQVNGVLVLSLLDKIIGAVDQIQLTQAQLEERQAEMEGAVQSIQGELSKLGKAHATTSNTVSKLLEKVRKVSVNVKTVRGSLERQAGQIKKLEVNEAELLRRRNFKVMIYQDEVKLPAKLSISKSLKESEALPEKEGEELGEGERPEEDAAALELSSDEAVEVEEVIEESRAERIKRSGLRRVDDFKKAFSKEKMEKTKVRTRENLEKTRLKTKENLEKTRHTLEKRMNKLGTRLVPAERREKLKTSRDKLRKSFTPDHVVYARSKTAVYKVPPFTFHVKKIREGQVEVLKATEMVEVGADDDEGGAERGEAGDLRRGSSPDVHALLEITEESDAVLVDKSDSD
Kind of experiment: co-IP; semi-endogenous; HeLa cells expressing the Flag-tagged bait, Flag M2 beads, endogenous partner detected by western blot; for PTRF with SDPR with or without overexpressed UBE2O-Myc. A general note: In western blotting, separated proteins are transferred to a membrane and probed.

The target of another experiment is T4, Flag-UBE2O (UniProt Q9C0C9).
T4 sequence: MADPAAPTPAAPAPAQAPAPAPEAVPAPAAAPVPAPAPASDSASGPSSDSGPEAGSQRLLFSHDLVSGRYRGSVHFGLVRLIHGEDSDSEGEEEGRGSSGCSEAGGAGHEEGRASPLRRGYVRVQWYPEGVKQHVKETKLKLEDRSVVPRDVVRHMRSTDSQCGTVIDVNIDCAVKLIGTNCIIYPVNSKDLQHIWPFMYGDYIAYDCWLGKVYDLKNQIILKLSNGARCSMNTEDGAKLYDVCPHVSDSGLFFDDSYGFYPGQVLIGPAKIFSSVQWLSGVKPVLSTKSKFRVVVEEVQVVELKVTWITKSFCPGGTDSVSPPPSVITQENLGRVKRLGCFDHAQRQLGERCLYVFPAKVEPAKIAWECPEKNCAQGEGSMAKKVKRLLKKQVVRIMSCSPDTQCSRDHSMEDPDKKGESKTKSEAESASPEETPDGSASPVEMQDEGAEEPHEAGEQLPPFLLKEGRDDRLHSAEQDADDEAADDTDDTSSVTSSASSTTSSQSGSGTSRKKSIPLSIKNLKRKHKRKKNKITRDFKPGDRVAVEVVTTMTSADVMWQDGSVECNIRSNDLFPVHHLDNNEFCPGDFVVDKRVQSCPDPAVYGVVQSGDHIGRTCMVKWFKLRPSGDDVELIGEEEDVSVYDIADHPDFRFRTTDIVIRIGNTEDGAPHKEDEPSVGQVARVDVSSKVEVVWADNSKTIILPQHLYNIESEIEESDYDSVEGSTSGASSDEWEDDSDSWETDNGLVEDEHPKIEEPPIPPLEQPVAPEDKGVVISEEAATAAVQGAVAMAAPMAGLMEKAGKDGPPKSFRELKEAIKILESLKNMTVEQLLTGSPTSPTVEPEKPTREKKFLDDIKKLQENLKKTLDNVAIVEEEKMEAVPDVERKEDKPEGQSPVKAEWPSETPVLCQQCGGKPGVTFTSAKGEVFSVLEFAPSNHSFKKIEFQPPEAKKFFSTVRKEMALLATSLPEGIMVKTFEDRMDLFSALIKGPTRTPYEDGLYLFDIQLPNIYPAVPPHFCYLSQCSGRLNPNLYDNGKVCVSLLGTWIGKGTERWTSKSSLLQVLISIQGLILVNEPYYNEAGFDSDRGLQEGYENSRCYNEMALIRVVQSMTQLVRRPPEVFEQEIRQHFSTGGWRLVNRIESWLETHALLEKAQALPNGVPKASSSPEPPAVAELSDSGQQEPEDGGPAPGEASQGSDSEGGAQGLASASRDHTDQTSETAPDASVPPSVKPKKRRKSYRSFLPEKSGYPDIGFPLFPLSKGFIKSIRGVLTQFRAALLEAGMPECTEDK
The description is as above.

Take “caveolin-1 (CAV1) (from UniProt Q03135 1-178)”: the binding result in experiment [1] and in experiment [2] was “binds” in each case.

B1: endogenous SDPR (protein, UniProt O95810 1-425)
chain: MGEDAAQAEKFQHPGSDMRQEKPSSPSPMPSSTPSPSLNLGNTEEAIRDNSQVNAVTVLTLLDKLVNMLDAVQENQHKMEQRQISLEGSVKGIQNDLTKLSKYQASTSNTVSKLLEKSRKVSAHTRAVKERMDRQCAQVKRLENNHAQLLRRNHFKVLIFQEENEIPASVFVKQPVSGAVEGKEELPDENKSLEETLHTVDLSSDDDLPHDEEALEDSAEEKVEESRAEKIKRSSLKKVDSLKKAFSRQNIEKKMNKLGTKIVSVERREKIKKSLTSNHQKISSGKSSPFKVSPLTFGRKKVREGESHAENETKSEDLPSSEQMPNDQEEESFAEGHSEASLASALVEGEIAEEAAEKATSRGSNSGMDSNIDLTIVEDEEEESVALEQAQKVRYEGSYALTSEEAERSDGDPVQPAVLQVHQTS
As for B1, the binding result with Flag-PTRF (human) and with Flag-UBE2O was “binds” each time.

(Values after article PMC9703712.)
